Test results: paper doi:10.1101/671024
Where a chain is given by its changes, count along the chain named. Numbers in names are those of the source. Results are given in words; binding and its absence hold for the method and conditions named. In cells and extracts the contact can be indirect. Some results given as binding are weak or reduced against the parent protein; the word gives no strength. Where a sequence is shown, tags or fusion partners need not be part of it. One block for each binder: values may come before it.

How the values were obtained:
Assay in all cases: co-IP
[1] = biological target: T1, LIN-52::GFP::3xFLAG (lin-52(WT)) (C. elegans) (UniProt Q10120)
T1 sequence: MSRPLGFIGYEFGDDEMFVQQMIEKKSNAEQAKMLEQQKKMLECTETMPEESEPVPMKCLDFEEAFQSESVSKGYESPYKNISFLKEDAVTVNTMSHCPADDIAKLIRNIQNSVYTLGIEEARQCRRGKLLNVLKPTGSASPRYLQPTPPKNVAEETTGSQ

[2] = biological target: T2, LIN-52[C44A]::GFP::3xFLAG (lin-52(1A)) (C. elegans) (UniProt Q10120)
T2 sequence: T1 sequence with C44A

[3] = biological target: T3, LIN-52[L42A,C44A,E46A]::GFP::3xFLAG (lin-52(3A)) (C. elegans) (UniProt Q10120)
T3 sequence: T1 sequence with L42A, C44A, E46A

[4] = biological target: T4, LIN-35 (C. elegans (endogenous in late embryos)) (UniProt G5EDT1)
T4 sequence: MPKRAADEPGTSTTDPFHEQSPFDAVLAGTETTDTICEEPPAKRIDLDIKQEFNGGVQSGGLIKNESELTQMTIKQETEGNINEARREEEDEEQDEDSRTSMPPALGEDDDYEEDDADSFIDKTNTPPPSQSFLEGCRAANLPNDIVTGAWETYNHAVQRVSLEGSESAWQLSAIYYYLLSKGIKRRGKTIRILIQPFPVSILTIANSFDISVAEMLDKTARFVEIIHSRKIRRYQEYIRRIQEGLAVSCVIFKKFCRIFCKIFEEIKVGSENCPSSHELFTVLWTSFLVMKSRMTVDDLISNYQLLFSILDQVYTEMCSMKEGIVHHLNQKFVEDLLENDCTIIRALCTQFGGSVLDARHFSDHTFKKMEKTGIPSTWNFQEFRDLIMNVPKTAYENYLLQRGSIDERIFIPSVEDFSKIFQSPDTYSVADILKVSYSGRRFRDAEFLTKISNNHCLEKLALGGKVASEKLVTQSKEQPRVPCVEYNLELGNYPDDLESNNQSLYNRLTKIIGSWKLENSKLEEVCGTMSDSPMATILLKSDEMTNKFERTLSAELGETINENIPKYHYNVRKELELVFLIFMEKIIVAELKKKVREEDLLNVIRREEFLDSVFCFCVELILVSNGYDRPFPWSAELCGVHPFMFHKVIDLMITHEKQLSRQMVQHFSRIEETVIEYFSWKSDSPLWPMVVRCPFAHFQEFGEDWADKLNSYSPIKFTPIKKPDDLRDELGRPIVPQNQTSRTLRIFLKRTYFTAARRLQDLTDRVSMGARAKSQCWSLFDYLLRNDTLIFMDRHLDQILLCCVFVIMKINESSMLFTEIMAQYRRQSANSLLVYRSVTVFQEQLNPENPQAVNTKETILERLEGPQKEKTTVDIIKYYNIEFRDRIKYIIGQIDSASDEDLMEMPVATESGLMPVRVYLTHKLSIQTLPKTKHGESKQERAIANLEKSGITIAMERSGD

binding [1]: binds
binding [2]: binds
binding [3]: no binding
B1: LIN-35 (protein, UniProt G5EDT1 1-961)
chain: T4 sequence

binding [4]: binds
B2: LIN-52::GFP::3xFLAG (lin-52(WT)) (protein, UniProt Q10120 1-161)
chain: T1 sequence

binding [4]: no binding
B3: LIN-52[L42A,C44A,E46A]::GFP::3xFLAG (lin-52(3A)) (protein, UniProt Q10120 1-161)
chain: T1 sequence with L42A, C44A, E46A

binding [4]: binds
B4: LIN-52[C44A]::GFP::3xFLAG (lin-52(1A)) (protein, UniProt Q10120 1-161)
chain: T1 sequence with C44A
